The whole screen tested about 300,000 compounds, of which about 5,400 (1.8%) were called active. Inconclusive results, whose numbers are uncertain, are shown with a selection of clear calls. Calls follow the shape of the full dose curve; tested in HEK293 cells. Potencies of inconclusive entries are doubtful fits and often do not repeat.
Test: qHTS for inhibitors of binding or entry into cells for Marburg Virus
Details: Marburg virus pseudotyped entry inhibition, cell reporter; activity change, negative = inhibition: at 37.8 µM (top of the series) unless noted
With `CC(Sc1nncs1)C(=O)NCc1ccc2c(c1)OCO2` (stereo not given) the Potency was inconclusive: 7.3 µM [activator, partial curve, poor fit]. In the case of `Cc1ccc2[nH]c(=O)c3cc(C(=O)NC4CCC(C)CC4)sc3c2c1` (stereo not given), the Potency is reported as “inactive”. With `CC1CCCCC1NC(=O)COC(=O)c1ccc(N(C)C)cc1` (stereo not given) the Potency was inconclusive: 1.26 µM [inhibitor, partial curve, poor fit]. For `COc1ccc(OCC(=O)Nc2cccc(OC)c2)cc1`, the Potency was inconclusive: 32.6 µM [inhibitor, single point]. For `CCCCCSc1nc(C)c(CC(=O)O)c(=O)[nH]1`, the Potency was “inactive”. For `O=C(Nc1ccc2nc(-c3cccs3)c(-c3cccs3)nc2c1)NC1CC1`, the Potency was “inactive”. In the case of `Cc1cc(NC(=O)c2ccccc2)sc1C`, the Potency is reported as inconclusive: 10 µM [inhibitor, single point]. With `CC(C)C(NC(=O)c1c(F)cccc1F)C(=O)NCc1ccncc1` (stereo not given) the Potency was inconclusive: 1.26 µM [inhibitor, single point]. With `COc1ccc(S(=O)(=O)N(CC(=O)N2CCOCC2)Cc2ccccc2)cc1` the Potency was inconclusive: 29.1 µM [inhibitor, single point]. With `Cc1cc(C)c2c(c1)/C(=C/C(=O)c1ccc(Br)s1)C(=O)N2` the Potency was inconclusive: 29.1 µM [inhibitor, single point]. For `Cc1cc(NC(=O)CSCC(=O)Nc2nc3c(C)cccc3s2)no1`, the Potency was “inactive”. With `O=C(COc1ccc(Cl)cc1)NCCSCc1cccc(Cl)c1` the Potency was inconclusive: 6.31 µM [activator, single point]. For `CCOc1cc(-c2noc(-c3ccncc3)n2)cc(Br)c1OC`, the Potency was “inactive”. For `COc1ccc(-c2c[n+]3c(n2-c2ccccc2)CCCCC3)cc1`, the Potency was inconclusive: 11.6 µM [inhibitor, partial curve]. For `COc1cc(/C=N/N=C(/N)c2nonc2N)cc(Br)c1OCc1ccccc1C`, the Potency was inconclusive: 29.1 µM [inhibitor, single point]. With `Cn1c(=S)n(/N=C/c2ccc3c(c2)OCO3)c2ccccc21` the activity change, negative = inhibition was inconclusive: 30.9% [activator]. In the case of `COc1ccccc1-n1cnnc1SCC(=O)c1c[nH]c2ccccc12`, the Potency is reported as inconclusive: 0.184 µM [inhibitor, full curve, poor fit]. In the case of `CN(C)C(=S)N=c1ssc(=S)n1Cc1ccccc1`, the Potency is reported as inconclusive: 1.26 µM [inhibitor, partial curve, poor fit]. For `Cc1ccc(C(=O)Nc2nnc(-c3ccncc3)o2)cc1`, the Potency was inconclusive: 15.8 µM [inhibitor, single point]. With `CC1CC(N(C(=O)c2ccc(Cl)cc2)c2ccccc2)c2ccccc2N1C(=O)c1ccco1` (stereo not given) the Potency was inconclusive: 17.8 µM [inhibitor, partial curve, poor fit].

From PubChem BioAssay AID540276 (National Center for Advancing Translational Sciences (NCATS), 2011)
% is scaled to controls: 0 for no effect and ±100 for the full control effect; potency is read from the fitted curve at half-maximal effect.
